Settings: most tissues, except lens and vitreous samples in a few cases

## C[C@@H]1C[C@H]2[C@@H]3CCC4=CC(=O)C=C[C@]4(C)[C@@]3(F)[C@@H](O)C[C@]2(C)[C@@]1(O)C(=O)COP(=O)(O)O [DSP, dexamethasone sodium phosphate]
  Ocular tissue concentrations of DSP: higher than 1 μg/g

Source: US20190105264A1, “NON-INVASIVE OCULAR DRUG DELIVERY DEVICES” (Aciont Inc., priority 2017, published 2019)
